Experimental data as given in patent US20230143604A1, “QW DOSING OF GIP RECEPTOR AGONIST PEPTIDE COMPOUNDS AND USES THEREOF” (TAKEDA PHARMACEUTICAL COMPANY LIMITED, priority 2020, published 2023).

Experiment: Solubility in phosphate buffer pH 7.4
Settings: pH 7.4, aqueous buffer, pH 7.4 Phosphate Buffer - Solubility, 200 mM Phosphate buffer pH 7.4
Experimental: Solubility of the GIPR peptides may be determined by dissolution in a phosphate buffer followed by quantitation using liquid chromatography, for example, High Performance Liquid Chromatogry (HPLC). An illustrative method is provided. For determination of the solubility of the GIPr agonist peptides, 3 mg of peptides are weighted out in a small glass vial. 100 μL of 200 mM Phosphate buffer pH 7.4 are added and the vial is sonicated/votexed as necessary for a maximum of 1 min. […] If insoluble material is observed in the tube the addition of 100 μL of buffer and mixing is repeated until complete dissolution.
3 mg of peptides are weighted out in a small glass vial. 100 uL of 200 mM Phosphate buffer pH 7.4 are added and the vial is sonicated/votexed as necessary for a maximum of 1 min. […] If insoluble material is observed in the tube the addition of 100 uL of buffer and mixing is repeated until complete dissolution.

SMILES: CC[C@H](C)[C@H](NC(=O)[C@H](CO)NC(=O)[C@H](Cc1ccc(O)cc1)NC(=O)[C@H](CC(=O)O)NC(=O)[C@H](CO)NC(=O)[C@@H](NC(=O)[C@H](Cc1ccccc1)NC(=O)[C@@H](NC(=O)CNC(=O)[C@H](CCC(=O)O)NC(=O)C(C)(C)NC(=O)[C@H](Cc1ccc(O)cc1)NC)[C@@H](C)O)[C@@H](C)CC)C(=O)N[C@@H](C)C(=O)N[C@@H](CC(C)C)C(=O)N[C@@H](CC(=O)O)C(=O)N[C@@H](CCCNC(=N)N)C(=O)NC(C)(C)C(=O)N[C@@H](C)C(=O)N[C@@H](CCC(N)=O)C(=O)NC(C)(C)C(=O)N[C@@H](CCCCNC(=O)COCCOCCNC(=O)COCCOCCNC(=O)CC[C@H](NC(=O)CC[C@H](NC(=O)CCCCCCCCCCCCCCCCC(=O)O)C(=O)O)C(=O)O)C(=O)N[C@@H](Cc1ccccc1)C(=O)N[C@H](C(=O)N[C@@H](CC(N)=O)C(=O)N[C@@H](Cc1c[nH]c2ccccc12)C(=O)N[C@@H](CC(C)C)C(=O)N[C@@H](CC(C)C)C(=O)N[C@@H](C)C(=O)N[C@@H](CCC(N)=O)C(=O)N[C@@H](CCCCN)C(=O)NCC(=O)O)C(C)C [Compound 41, Me-Y-Aib-E-G-T-F-I-S-D-Y-S-I-A-L-D-R-Aib-A-Q-Aib-Km-F-V-N-W-L-L-A-Q-K-G-OH]
- solubility: ≥ 30 mg/mL
